The other results are listed elsewhere or left out.

Chains of the proteins cited; added tags and fusions are not shown.
UniProt Q0JBA9, entry or part of it: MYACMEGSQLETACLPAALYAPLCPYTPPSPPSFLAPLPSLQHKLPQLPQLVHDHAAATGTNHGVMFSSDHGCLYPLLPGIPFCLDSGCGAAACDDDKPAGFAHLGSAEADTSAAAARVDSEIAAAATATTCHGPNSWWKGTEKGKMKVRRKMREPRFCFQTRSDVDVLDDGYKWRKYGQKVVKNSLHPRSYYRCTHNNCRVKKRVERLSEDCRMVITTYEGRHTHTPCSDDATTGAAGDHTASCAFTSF

For this experiment, the target named is OsWRKY34 (Oryza sativa, UniProt Q0JBA9 1-250). Nature of the experiment: protein-binding microarray (RPBM); PBS, 2% BSA, 51.3 ng/ul salmon testes DNA, 50 uM zinc acetate, 200 nM TF, 25 C, 1 h; high values mean tight binding. The conditions noted are these: protein: recombinant; tags: N-terminal polyhistidine and DsRed monomer fusion (pET32a); label: CyDye5-dUTP incorporated in the synthesized complementary strand; 3' TTTTT single-stranded linker to array surface; dsDNA, one strand shown. The method in brief:
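A custom Agilent array was converted to double-stranded form by primer extension with Cy5-dUTP and blocked with 2% BSA. Protein at 200 nM in PBS with 2% BSA, salmon testes DNA and 50 µM zinc acetate was applied for 1 h at 25 °C, followed by washing. The proteins were polyhistidine–DsRed N-terminal fusions of transcription factors, expressed in E. coli BL21-CodonPlus and Ni–NTA-purified. The binding signal is per-feature fluorescence intensity (arbitrary units) from an Axon 4000B scanner.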
On to “GCAAAGCTAGTGAAAAGTCCAAAATAAAACACCGGTAGTTCGGAGTCACCTAGTGCAG”, for which the binding signal was 10800 fluorescence intensity (a.u.).
The result for “CAGTTTTCGTTAGTGTTTTGTTTGGTTTGGTTCGTGCTGTCGGAGTCACCTAGTGCAG” reads 13100 fluorescence intensity (a.u.); that for “GCGATGGGAGGTGGGCGACGCGAGGGAGAGGGGAGAGGGGCGGAGTCACCTAGTGCAG”, 18500 fluorescence intensity (a.u.).
Take “CCTCTTTCCTTCTTCTCTTCCCGTTGACTCCGCAGTTGCCCGGAGTCACCTAGTGCAG”: the binding signal was 9160 fluorescence intensity (a.u.).
Take “TTATATTTTGGGACGGAGTATTACTTTGAATCCCTTTTCCCGGAGTCACCTAGTGCAG”: the binding signal was 8280 fluorescence intensity (a.u.).
The result for “GTCTCCATCTCTTTTACCTCAGTCTCGCGTATATCTTAGTCGGAGTCACCTAGTGCAG” reads 12800 fluorescence intensity (a.u.).
On to “ATACCCTTGAATTGAGTTGGCCCACCCCTGCCCATGACCACGGAGTCACCTAGTGCAG”, for which the binding signal was 8380 fluorescence intensity (a.u.).
With “CGCGTCGTGCTCGTCTCTCTTTGCTTCTTCCAGCTCCAGACGGAGTCACCTAGTGCAG”, the binding signal was 9520 fluorescence intensity (a.u.).
With “TCTTTCTCTTTCTACACCATGGCTTTTCGCTTTCATTTAGCGGAGTCACCTAGTGCAG” the figure was 10500 fluorescence intensity (a.u.); with “GGTCGGCGGGAGGGCGGGAGAGGAGCAGCGGCGCACGGGGCGGAGTCACCTAGTGCAG”, 12400 fluorescence intensity (a.u.).
The result for “CGCCTGTTTGGACACCTATATACCAGAGTCGTGGGGCTTGCGGAGTCACCTAGTGCAG” reads 8590 fluorescence intensity (a.u.).
With “CTTTTTTCTCTGCGGGTTCTTCAATTATTCAGGGTTTCTTCGGAGTCACCTAGTGCAG” the figure was 16800 fluorescence intensity (a.u.).
With “TTTCTATTTGACTATTTATATTCCAAATTAGTCATTTATCCGGAGTCACCTAGTGCAG”, the binding signal is 9460 fluorescence intensity (a.u.).
With “AACGATATTGTCTATGCATATTGCTTCCTTTGTCCTTACTCGGAGTCACCTAGTGCAG” the figure was 10400 fluorescence intensity (a.u.).
The result for “CTAGGTCTGTCCTTATGTCAGTATGTGTGTCTGGATTATTCGGAGTCACCTAGTGCAG” reads 9600 fluorescence intensity (a.u.); that for “AATTTTGTCGGGGCCGATTATAGTTGACTACTAGCACATACGGAGTCACCTAGTGCAG”, 9570 fluorescence intensity (a.u.); that for “AGCGAGGAAGGAGGAGGTGGGGAAGAGTAGTTCATAGATCCGGAGTCACCTAGTGCAG”, 8240 fluorescence intensity (a.u.).
The result for “AGTCAAAAGTCGAATTTTGCCTGACATGTTTCTTTACATACGGAGTCACCTAGTGCAG” reads 9490 fluorescence intensity (a.u.); that for “TTTCTTGCGCCATTTCCCACCGCCGCCGCCGCCGCCCGCGCGGAGTCACCTAGTGCAG”, 9500 fluorescence intensity (a.u.); that for “TTCACAATGTAAGCCATTCTAGCATTTTCCATATTTATATCGGAGTCACCTAGTGCAG”, 8240 fluorescence intensity (a.u.).
On to “CCTTGGTGCCATTTTCTGCAGTATGTCATGCAATCTTTGTCGGAGTCACCTAGTGCAG”, for which the binding signal is 9260 fluorescence intensity (a.u.).
The result for “CAAGCGATCGATCGTCCACACGCACGGCCGCACCGCATCGCGGAGTCACCTAGTGCAG” reads 8380 fluorescence intensity (a.u.); that for “TTTTTCTGTTAGATGATTTTTTTTTCCTGGACAATTATCTCGGAGTCACCTAGTGCAG”, 8220 fluorescence intensity (a.u.); that for “CATCATCACTCCCTCGTCGCTGTCGTTGTTGTCATCGTTCCGGAGTCACCTAGTGCAG”, 10400 fluorescence intensity (a.u.).
With “CTGTATTTTCCTAATCATAATTTTTTAGGCTCCTTATTGTCGGAGTCACCTAGTGCAG” the figure was 8240 fluorescence intensity (a.u.); with “TGTACACGCAGCATCCTACATGTCTTCTTCCTCTGTCCGTCGGAGTCACCTAGTGCAG”, 8230 fluorescence intensity (a.u.).
With “TAAATGTAGTTTGACTTTTTTGTTTACTGCATACTGTTGACGGAGTCACCTAGTGCAG”, the binding signal was 14300 fluorescence intensity (a.u.).
The result for “GGTGGCGGCGGGGTTGGTCCACTCGAAGAGCTCGGCGGTGCGGAGTCACCTAGTGCAG” reads 13400 fluorescence intensity (a.u.).
The result for “TTGCCCATCTCGTCGTCTTCATCGCCGTTCGAGCTTCAACCGGAGTCACCTAGTGCAG” reads 12900 fluorescence intensity (a.u.); that for “TGCACCAACGGTCAACTGAAACATTTGACCGTCCTATTTTCGGAGTCACCTAGTGCAG”, 11600 fluorescence intensity (a.u.); that for “GGGCTCATCTTCACCGTTGTCATTCAGTTATTCACATAAGCGGAGTCACCTAGTGCAG”, 10300 fluorescence intensity (a.u.).
In the case of “CAACCGCCTCCGCGCGCGGCCCGTCGCCATCGTCGAGCACCGGAGTCACCTAGTGCAG”, the binding signal was 10300 fluorescence intensity (a.u.).
The result for “AACCATTCTATTCCACTACAAATCATCGGCCAAAATTACCCGGAGTCACCTAGTGCAG” reads 8300 fluorescence intensity (a.u.).
With “GCAGTCCACCACTTGGCCCGTCACTCTCGAAAATGCTGAGCGGAGTCACCTAGTGCAG” the figure was 12100 fluorescence intensity (a.u.).
The result for “GAAGCTGTTCTCCATCTTCTCCTCGTCGTCGTCCTCGTCGCGGAGTCACCTAGTGCAG” reads 8220 fluorescence intensity (a.u.); that for “GTTGAGGGACCCGCTGGATCTGGTTTTTGATTGAAGGATACGGAGTCACCTAGTGCAG”, 8800 fluorescence intensity (a.u.); that for “TAATTATTAATTCTTTTCCTATCATTTGATTCATTGTTAACGGAGTCACCTAGTGCAG”, 8280 fluorescence intensity (a.u.).
As to “AAAGCCTATAACATTATTACTATGTTCATTTATCTACAATCGGAGTCACCTAGTGCAG”, the binding signal was 8270 fluorescence intensity (a.u.).
With “CCGCCCGATCCACCCAAGAACTGCCGATTTCGCCGGCTCGCGGAGTCACCTAGTGCAG” the figure was 8440 fluorescence intensity (a.u.); with “CCACCGCCACCTCCATGCCCAAGCATCGCATCAAGCCGCTCGGAGTCACCTAGTGCAG”, 9970 fluorescence intensity (a.u.).
With “ATGAAGCCATCTTTGTCCAAACATCTTTTTTTCTGTCGCGCGGAGTCACCTAGTGCAG” the figure was 11200 fluorescence intensity (a.u.).
As for “CCGTTTCATATTTAAATTGTTTTGACTTTTTTATAGTTAACGGAGTCACCTAGTGCAG”, the binding signal was 8140 fluorescence intensity (a.u.).

For the origin of these results see PMC7819943, “Rice protein-binding microarrays: a tool to detect cis-acting elements near promoter regions in rice”.
